These are yes or no findings as the source states them, for the method shown. In cells and extracts the contact can be indirect. Some binding calls cover weakened binding; strength is not graded here.

Protein sequences, listed by entry. Tags and fused reporters are not part of them. Residues count along the entry.
UniProt P35222: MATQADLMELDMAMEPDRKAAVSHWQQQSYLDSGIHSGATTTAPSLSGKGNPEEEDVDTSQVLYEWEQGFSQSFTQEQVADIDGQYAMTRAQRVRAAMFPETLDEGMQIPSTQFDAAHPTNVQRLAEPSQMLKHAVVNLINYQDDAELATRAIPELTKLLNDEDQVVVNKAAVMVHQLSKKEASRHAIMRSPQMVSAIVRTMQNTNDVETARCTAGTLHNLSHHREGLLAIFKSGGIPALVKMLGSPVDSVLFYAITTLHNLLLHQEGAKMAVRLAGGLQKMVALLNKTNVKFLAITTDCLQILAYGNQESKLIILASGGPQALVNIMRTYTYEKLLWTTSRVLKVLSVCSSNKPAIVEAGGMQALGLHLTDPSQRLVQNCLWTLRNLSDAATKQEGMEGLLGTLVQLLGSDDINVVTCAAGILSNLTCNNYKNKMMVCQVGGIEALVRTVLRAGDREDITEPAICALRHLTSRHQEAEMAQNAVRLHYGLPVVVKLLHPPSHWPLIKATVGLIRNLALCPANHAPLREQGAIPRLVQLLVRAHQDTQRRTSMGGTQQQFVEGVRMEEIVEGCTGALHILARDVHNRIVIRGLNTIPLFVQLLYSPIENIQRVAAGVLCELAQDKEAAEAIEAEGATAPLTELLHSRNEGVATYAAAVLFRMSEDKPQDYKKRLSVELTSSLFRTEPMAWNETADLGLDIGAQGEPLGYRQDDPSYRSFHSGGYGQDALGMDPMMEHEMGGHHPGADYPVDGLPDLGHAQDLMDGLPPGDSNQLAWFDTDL
UniProt Q9Y219, residues 24-1238: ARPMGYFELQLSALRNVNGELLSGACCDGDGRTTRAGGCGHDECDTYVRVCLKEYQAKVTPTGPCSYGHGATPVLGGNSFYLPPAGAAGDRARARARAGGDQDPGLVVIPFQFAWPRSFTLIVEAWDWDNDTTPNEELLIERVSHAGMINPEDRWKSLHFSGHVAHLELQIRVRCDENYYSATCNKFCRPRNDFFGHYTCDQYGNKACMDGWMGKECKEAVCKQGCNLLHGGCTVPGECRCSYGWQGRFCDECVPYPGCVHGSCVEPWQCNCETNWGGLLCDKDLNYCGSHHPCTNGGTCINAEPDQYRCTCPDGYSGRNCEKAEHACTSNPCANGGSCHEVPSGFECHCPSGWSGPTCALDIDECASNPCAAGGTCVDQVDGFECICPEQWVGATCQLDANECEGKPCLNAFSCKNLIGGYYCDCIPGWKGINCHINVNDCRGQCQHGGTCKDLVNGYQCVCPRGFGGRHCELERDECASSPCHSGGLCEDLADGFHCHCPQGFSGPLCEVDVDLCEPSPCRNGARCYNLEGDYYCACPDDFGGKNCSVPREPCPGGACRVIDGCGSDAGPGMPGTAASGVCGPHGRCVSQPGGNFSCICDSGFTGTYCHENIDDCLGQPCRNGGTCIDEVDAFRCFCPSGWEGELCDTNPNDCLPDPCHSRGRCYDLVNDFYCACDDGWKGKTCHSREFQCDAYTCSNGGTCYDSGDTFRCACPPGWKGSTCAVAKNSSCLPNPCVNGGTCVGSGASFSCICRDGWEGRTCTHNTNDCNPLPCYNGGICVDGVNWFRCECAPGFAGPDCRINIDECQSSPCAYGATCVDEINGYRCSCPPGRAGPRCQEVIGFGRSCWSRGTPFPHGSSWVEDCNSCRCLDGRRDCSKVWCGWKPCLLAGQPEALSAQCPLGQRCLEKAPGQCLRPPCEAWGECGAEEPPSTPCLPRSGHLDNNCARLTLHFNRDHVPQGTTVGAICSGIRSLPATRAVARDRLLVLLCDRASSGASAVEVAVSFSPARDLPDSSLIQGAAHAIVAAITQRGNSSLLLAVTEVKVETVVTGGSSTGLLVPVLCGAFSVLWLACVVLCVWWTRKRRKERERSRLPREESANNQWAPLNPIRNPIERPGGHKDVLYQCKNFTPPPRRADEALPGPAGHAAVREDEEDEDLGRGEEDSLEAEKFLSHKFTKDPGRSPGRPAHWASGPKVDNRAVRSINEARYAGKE

This assay has as its target β-catenin (human (endogenous in primary bronchial epithelial cells)) (UniProt P35222). Put plainly: co-IP.

Turning to “Jagged2 (JAG2) (from UniProt Q9Y219 24-1238)”, the binding result is given as “binds”.

The record behind these values is doi:10.1101/2022.01.29.478334.
